## Percent effect of library compounds

By UniProt entry, the sequences of proteins in these tests, tags left out. Residues count along the entry.
UniProt P9WNZ1, whole entry: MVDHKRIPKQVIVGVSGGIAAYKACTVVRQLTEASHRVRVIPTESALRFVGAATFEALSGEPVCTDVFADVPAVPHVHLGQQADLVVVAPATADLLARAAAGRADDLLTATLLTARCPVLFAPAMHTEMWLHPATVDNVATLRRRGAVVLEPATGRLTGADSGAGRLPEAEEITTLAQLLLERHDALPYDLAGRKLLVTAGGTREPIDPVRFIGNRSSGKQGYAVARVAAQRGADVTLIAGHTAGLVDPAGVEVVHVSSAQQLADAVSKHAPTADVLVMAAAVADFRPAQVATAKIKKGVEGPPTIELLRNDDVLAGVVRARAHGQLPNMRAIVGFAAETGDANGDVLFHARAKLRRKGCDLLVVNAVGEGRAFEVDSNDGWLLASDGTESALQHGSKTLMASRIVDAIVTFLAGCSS
UniProt Q8IDJ8, 1-583: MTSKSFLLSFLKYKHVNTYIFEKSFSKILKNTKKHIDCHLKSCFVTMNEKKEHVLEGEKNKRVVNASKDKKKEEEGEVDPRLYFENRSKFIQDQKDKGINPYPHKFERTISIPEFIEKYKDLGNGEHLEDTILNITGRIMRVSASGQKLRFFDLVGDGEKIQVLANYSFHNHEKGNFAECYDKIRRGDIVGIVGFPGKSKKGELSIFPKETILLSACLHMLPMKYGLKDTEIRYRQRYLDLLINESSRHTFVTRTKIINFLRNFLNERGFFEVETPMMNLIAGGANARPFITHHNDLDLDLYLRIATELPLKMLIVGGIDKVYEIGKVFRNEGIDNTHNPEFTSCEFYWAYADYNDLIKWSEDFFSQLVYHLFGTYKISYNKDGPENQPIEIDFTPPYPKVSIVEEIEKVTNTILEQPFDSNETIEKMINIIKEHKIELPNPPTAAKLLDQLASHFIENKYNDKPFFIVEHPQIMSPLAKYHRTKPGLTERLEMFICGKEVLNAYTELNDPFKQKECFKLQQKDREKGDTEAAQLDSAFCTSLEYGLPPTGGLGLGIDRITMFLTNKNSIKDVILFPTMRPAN
UniProt P9WFT3, whole entry: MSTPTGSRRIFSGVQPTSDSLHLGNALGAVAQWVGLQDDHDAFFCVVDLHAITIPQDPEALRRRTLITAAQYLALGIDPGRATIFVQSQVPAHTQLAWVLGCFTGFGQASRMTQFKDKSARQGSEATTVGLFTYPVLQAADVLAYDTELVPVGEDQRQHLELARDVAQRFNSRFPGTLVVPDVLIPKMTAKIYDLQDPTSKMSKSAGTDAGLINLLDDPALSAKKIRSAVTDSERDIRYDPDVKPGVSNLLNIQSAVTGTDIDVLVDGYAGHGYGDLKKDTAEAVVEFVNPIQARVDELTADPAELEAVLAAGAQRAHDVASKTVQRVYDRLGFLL
UniProt I6X8D2, whole entry: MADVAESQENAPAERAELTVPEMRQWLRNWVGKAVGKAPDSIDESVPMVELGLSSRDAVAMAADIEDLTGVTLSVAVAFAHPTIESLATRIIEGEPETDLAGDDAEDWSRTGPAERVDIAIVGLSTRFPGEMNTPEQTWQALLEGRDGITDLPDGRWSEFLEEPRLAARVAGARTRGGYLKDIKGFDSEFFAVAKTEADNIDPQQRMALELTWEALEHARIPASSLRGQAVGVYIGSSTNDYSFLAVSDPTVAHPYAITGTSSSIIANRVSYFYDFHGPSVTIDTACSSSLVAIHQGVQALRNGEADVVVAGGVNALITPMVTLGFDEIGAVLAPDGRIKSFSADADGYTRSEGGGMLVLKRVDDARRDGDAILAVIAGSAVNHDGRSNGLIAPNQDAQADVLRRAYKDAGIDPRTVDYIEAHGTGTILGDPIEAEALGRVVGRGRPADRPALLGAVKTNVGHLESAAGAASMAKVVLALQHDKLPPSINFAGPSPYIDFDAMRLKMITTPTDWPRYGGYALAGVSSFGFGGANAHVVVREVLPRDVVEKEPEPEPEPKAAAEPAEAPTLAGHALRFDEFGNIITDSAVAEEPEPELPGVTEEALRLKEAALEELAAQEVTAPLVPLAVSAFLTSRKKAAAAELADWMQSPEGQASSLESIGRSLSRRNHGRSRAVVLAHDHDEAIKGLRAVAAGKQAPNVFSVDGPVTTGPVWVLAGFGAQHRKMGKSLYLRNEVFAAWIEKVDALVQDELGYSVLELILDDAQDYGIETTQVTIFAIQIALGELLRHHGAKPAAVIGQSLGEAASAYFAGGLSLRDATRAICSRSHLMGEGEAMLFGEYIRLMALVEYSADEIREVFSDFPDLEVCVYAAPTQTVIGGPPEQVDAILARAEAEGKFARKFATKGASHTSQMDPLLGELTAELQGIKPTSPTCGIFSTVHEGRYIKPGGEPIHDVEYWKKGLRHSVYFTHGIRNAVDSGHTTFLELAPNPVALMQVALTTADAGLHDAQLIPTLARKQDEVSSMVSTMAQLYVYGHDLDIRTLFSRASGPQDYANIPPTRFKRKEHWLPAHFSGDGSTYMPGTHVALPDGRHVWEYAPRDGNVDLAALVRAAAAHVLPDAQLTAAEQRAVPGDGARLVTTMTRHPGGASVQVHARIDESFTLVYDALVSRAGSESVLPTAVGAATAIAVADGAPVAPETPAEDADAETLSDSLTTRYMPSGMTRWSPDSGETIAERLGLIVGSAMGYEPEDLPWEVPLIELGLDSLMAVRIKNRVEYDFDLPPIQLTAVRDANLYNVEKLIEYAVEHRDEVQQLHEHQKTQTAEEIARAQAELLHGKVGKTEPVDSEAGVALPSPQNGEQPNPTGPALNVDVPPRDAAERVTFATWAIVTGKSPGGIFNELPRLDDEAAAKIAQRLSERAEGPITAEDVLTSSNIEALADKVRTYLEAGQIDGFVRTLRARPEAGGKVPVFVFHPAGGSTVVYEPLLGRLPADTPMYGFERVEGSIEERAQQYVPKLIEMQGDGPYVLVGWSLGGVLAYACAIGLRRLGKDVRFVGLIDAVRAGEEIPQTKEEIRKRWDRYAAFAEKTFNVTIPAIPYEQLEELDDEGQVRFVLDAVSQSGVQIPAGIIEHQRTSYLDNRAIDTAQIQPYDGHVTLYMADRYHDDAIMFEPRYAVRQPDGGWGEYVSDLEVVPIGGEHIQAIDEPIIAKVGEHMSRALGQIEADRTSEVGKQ

The filed quantity is “Percent Effect” (%). The controls that fix the scale are not given in the record; negative values are as filed. Compounds were drawn at random from those tested, without regard to their results.

CoaBC: 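Enzyme assay of CoaBC with a phosphate dye (Biomol Green) read at 650 nm. Target: Coenzyme A biosynthesis protein CoaBC, Mycobacterium tuberculosis (UniProt P9WNZ1). Tested at 30 µM. Direction is inferred from only a few compounds that gave an IC50; most scored high, so higher reads as stronger inhibition. Most strong results did not repeat in a second test. Of about 67,000 compounds tested this way, about 40 (0.06%) reached 50% or more in at least one test.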
PfKRS1: 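Enzyme assay of the cytosolic lysyl-tRNA synthetase in 384-well plates, read by luminescence. Target: Lysine-tRNA ligase, Plasmodium falciparum 3D7 (UniProt Q8IDJ8). Tested at 30 µM. Direction is inferred from only a few compounds that gave an IC50; most scored high, so higher reads as stronger inhibition. About 69,000 compounds were tested under these conditions; 0.071% (about 49) showed 50% or more at least once.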
Toxoplasma: 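Assay of Toxoplasma gondii numbers, read through their beta-galactosidase reporter with a colour substrate. Tested at 10 µM. Higher reads as fewer parasites (inferred from which compounds were picked for retests). About 67,000 compounds were tested under these conditions; 0.38% (about 260) showed 50% or more at least once.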
MtTrpRS: 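Tryptophan-tRNA ligase, Mycobacterium tuberculosis (UniProt P9WFT3). Enzyme assay of tryptophanyl-tRNA synthetase; the read-out is not stated. Compounds at 10 µM. Direction is not recorded; retested compounds ran higher, which suggests that high means inhibition. Size under these conditions: about 65,000 compounds, about 64 of them at 50% or above in at least one test.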
Pks13 thioesterase: 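Enzyme assay of the thioesterase domain of polyketide synthase 13; the read-out is not stated. Target: Polyketide synthase Pks13, Mycobacterium tuberculosis (UniProt I6X8D2). Compounds at 30 µM. Higher reads as stronger inhibition (inferred from which compounds were picked for retests). Size under these conditions: about 67,000 compounds, about 300 of them at 50% or above in at least one test.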

{"smiles": "Cc1cc(C)n(CC2CN(Cc3cccnc3)CCO2)n1", "stereo": "configuration not stated", "CoaBC": 0.7614, "PfKRS1": 1.197, "Toxoplasma": 10.33, "MtTrpRS": 3.68, "Pks13 thioesterase": -25.5}
{"smiles": "O=C(O)c1cc2c(nc1O)CC(c1cccc(Cl)c1)CC2=O", "stereo": "configuration not stated", "CoaBC": 5.249, "PfKRS1": -1.364, "Toxoplasma": -8.249, "MtTrpRS": -1.809, "Pks13 thioesterase": -18.34}
{"smiles": "Cc1ccc(CS(=O)(=O)N2Cc3c(CN(C)C)nn(C)c3C2)cc1", "CoaBC": 2.104, "PfKRS1": 4.051, "Pks13 thioesterase": -10.69}
{"smiles": "Cc1cn2nc(N3CCCC3C(=O)N3CCSCC3)sc2n1", "stereo": "configuration not stated", "CoaBC": 1.707, "PfKRS1": 7.422, "Toxoplasma": 0.1165, "MtTrpRS": 1.354, "Pks13 thioesterase": 14.89}
{"smiles": "CNC(=O)N1CCN(C(=O)C(C)C)CC2(CC(=O)N(C)C2)C1", "stereo": "configuration not stated", "CoaBC": 2.648, "PfKRS1": 4.609, "Toxoplasma": 6.635, "MtTrpRS": -5.771, "Pks13 thioesterase": 1.128}
{"smiles": "CC(NS(=O)(=O)CCc1ccccn1)c1ccccc1Br", "stereo": "configuration not stated", "CoaBC": -0.9346, "PfKRS1": -0.6298, "Toxoplasma": -5.444, "MtTrpRS": -1.248, "Pks13 thioesterase": -22.63}
{"smiles": "COCCCN(C)c1nc(-c2ccncc2)nc(C)c1C", "CoaBC": -7.656, "PfKRS1": -4.385, "Toxoplasma": 2.257, "MtTrpRS": 0.8738, "Pks13 thioesterase": -31.7}
{"smiles": "c1cc(CNCc2ccc(-n3cncn3)nc2)cc(OC2CCCC2)c1", "CoaBC": 8.428, "PfKRS1": 8.133, "MtTrpRS": 3.401, "Pks13 thioesterase": -7.611}
{"smiles": "CCC(C)(CNC(=O)c1ccon1)NC(=O)c1ccon1", "stereo": "configuration not stated", "CoaBC": -1.339, "PfKRS1": 2.888, "Toxoplasma": -0.7956, "MtTrpRS": -4.438, "Pks13 thioesterase": -35.14}
{"smiles": "Cc1noc(C)c1CN(C)C(C)c1cccs1", "stereo": "configuration not stated", "CoaBC": -61.33, "PfKRS1": 3.484, "Toxoplasma": -3.085, "MtTrpRS": -1.638, "Pks13 thioesterase": -23.61}
{"smiles": "O=C(C1CC1)N1CC2(CCNCC2)C1", "CoaBC": 5.089, "PfKRS1": 5.965, "MtTrpRS": -2.021, "Pks13 thioesterase": -24.59}
{"smiles": "O=C(O)C(F)(F)F.[H][C@@]12CCN(S(=O)(=O)C3CC3)[C@@]1([H])CCN2C(=O)c1ccncc1", "Toxoplasma": -0.6197}
{"smiles": "CCOCc1nc(N2CCCC2)sc1C(=O)NCCC(=O)OCC", "CoaBC": -4.348, "PfKRS1": 3.747, "Toxoplasma": -5.82, "MtTrpRS": -4.241, "Pks13 thioesterase": -1.504}
{"smiles": "O=C(NCCc1cccnc1)NC1CCOC2(CCCCC2)C1", "stereo": "configuration not stated", "CoaBC": -2.848, "PfKRS1": 3.434, "Toxoplasma": 4.962, "MtTrpRS": 11.6, "Pks13 thioesterase": 20.97}
{"smiles": "Cc1cc(C(=O)N2CCC(O)(Cn3c(C)cc4ccncc43)CC2)on1", "CoaBC": 8.01, "PfKRS1": -1.283, "Toxoplasma": 9.826, "MtTrpRS": -2.748, "Pks13 thioesterase": 17.34}
{"smiles": "CCN1CCCCC1C(=O)N1CCC(OCCOC)CC1", "stereo": "configuration not stated", "CoaBC": 1.094, "PfKRS1": 4.506, "MtTrpRS": -0.9646, "Pks13 thioesterase": -7.39}
{"smiles": "CC(C)NC(=O)c1cc2c(s1)CCN2c1ncccn1", "CoaBC": -0.2475, "PfKRS1": 5.729, "Toxoplasma": -5.974, "Pks13 thioesterase": 13.33}
{"smiles": "CSCc1ccc(C(=O)N2CCN(CC(C)O)CC2)cc1", "stereo": "configuration not stated", "CoaBC": 12.55, "PfKRS1": -0.09643, "Toxoplasma": -39.83, "MtTrpRS": -3.455, "Pks13 thioesterase": -2.327}
{"smiles": "Cn1cc(-c2nc(CN3CCCCC3Cn3cncn3)cs2)cn1", "stereo": "configuration not stated", "CoaBC": 0, "PfKRS1": -1.46, "Toxoplasma": 3.9, "MtTrpRS": -9.971, "Pks13 thioesterase": -0.1221}
{"smiles": "Cc1cc(C)c2[nH]c(C(=O)NCCN3CCCC3=O)c(C)c2c1", "CoaBC": 1.132, "PfKRS1": -1.755, "Toxoplasma": -31.57, "MtTrpRS": -2.041}
{"smiles": "CSc1cccc(CC(=O)N[C@@H]2CCNC[C@H]2O)c1", "CoaBC": -10.98, "PfKRS1": -0.06658, "Toxoplasma": 24.73, "MtTrpRS": 3.931, "Pks13 thioesterase": -0.1718}
{"smiles": "[H][C@@]12CN(C(=O)c3ccnnc3)C[C@]1([H])C(=O)N(Cc1cccc(C)c1)C2", "Toxoplasma": 5.183}
{"smiles": "COCCn1nc(C(=O)N2CCOCC2C)ccc1=O", "stereo": "configuration not stated", "CoaBC": 1.683, "PfKRS1": 1.734, "Toxoplasma": -4.722, "MtTrpRS": 0.7991, "Pks13 thioesterase": -6.733}
{"smiles": "Cc1nnc2ccc(NCC3(N4CCCCC4)CCOCC3)nn12", "CoaBC": 2.444, "PfKRS1": 6.83, "Toxoplasma": 2.996, "MtTrpRS": -2.874, "Pks13 thioesterase": -5.765}
{"smiles": "COCC(=O)NCc1cc2n(n1)CCCN(CCCC1CCCC1)C2", "CoaBC": -5.128, "PfKRS1": 4.465, "Toxoplasma": -11.8, "MtTrpRS": -6.781}

Measurements from “University of Dundee, Small-Polar-MMV Screening Library” (2021), ChEMBL document CHEMBL3988442.